At least one compound was matched to its structure with a doubt left.
Test system: PTZ-induced behavior in zebrafish larvae
Assay: Suppression of PTZ-induced behavior in zebrafish larvae
Assay type: in vivo
Settings: pre-treatment, non-sedative concentration 640 μM; data not shown
Procedure: Differences between behavioral profiles of larval zebrafish treated with KCC2 inhibitors and larval zebrafish treated with PTZ were investigated by evaluating the ability of traditional anti-seizure drugs to reverse their effects. Five drugs in at least six concentrations (by allocating 12 wells per concentration) were tested. These drugs included a benzodiazepine anxiolytic (diazepam), two AEDs that increase GABA levels in the synapse (tiagabine and valproate), a sodium channel blocker (phenytoin) and a synthetic neurosteroid GABAA positive allosteric modulator (PAM, ganaxolone).

## CCCC(CCC)C(=O)O [valproate]
  prevention of the formation of the PTZ-induced behavior: almost completely prevented
